Among the data in article PMC10576855 are binding values, retold here.

For this assay, the target named is T1, CD24 on 293T-CD24 cells (human), P25063.
T1 chain: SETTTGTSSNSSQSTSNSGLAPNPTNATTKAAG
Kind of assay: flow cytometry on cells; 293T-CD24 cells incubated with diluted IMM47 (from 5 μg/ml, three-fold dilutions) at 4 °C for 45 min, then PE-labeled human Siglec-10 at 4 °C for 45 min; PBS; only the binder purified. The settings on record: remark: other sources report otherwise.

No constants are given. Whether binding was seen depends on the method and setting. Some binding calls cover weakened binding; strength is not graded here.

B1: PE-labeled human Siglec-10, Q96LC7 17-550 (receptor)
chain: MDGRFWIRVQESVMVPEGLCISVPCSFSYPRQDWTGSTPAYGYWFKAVTETTKGAPVATNHQSREVEMSTRGRFQLTGDPAKGNCSLVIRDAQMQDESQYFFRVERGSYVRYNFMNDGFFLKVTALTQKPDVYIPETLEPGQPVTVICVFNWAFEECPPPSFSWTGAALSSQGTKPTTSHFSVLSFTPRPQDHNTDLTCHVDFSRKGVSAQRTVRLRVAYAPRDLVISISRDNTPALEPQPQGNVPYLEAQKGQFLRLLCAADSQPPATLSWVLQNRVLSSSHPWGPRPLGLELPGVKAGDSGRYTCRAENRLGSQQRALDLSVQYPPENLRVMVSQANRTVLENLGNGTSLPVLEGQSLCLVCVTHSSPPARLSWTQRGQVLSPSQPSDPGVLELPRVQVEHEGEFTCHARHPLGSQHVSLSLSVHYSPKLLGPSCSWEAEGLHCSCSSQASPAPSLRWWLGEELLEGNSSQDSFEVTPSSAGPWANSSLSLHGGLSSGLRLRCEAWNVHGAQSGSILQLPDKKGLISTAFSN
modifications: here or on the partner: PE label
Take B1: the binding entry is on record as “binds”.
